Out of some 360,000 compounds screened, about 7,500 (2.1%) were called active. Inconclusive means that the source gave no clear call. Such entries were picked first, then a sample of the others. Calls come from the whole dose curve; as a rule, active = well fitted inhibition curve with a large enough effect; inconclusive = small, poorly fitted or top-dose-only effect, or effect the other way; inactive = flat fitted curve, though single readings scatter. Where the call is inconclusive, the potency comes from a doubtful curve fit.
Test: Nrf2 qHTS screen for inhibitors; note: nearly all actives have a fitted effect of over 60% in size
Details: A549 ARE-Fluc reporter, luciferase luminescence, 18-24 h; activity change, negative = inhibition: at 46 µM (top of the series)
In short: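 Nrf2 function is reported as luminescence of an ARE-controlled luciferase in A549 cells. Compounds were tested at several concentrations, and a CellTiter-Fluor read on the same wells flagged cytotoxicity.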
% is set by controls: 0 for no effect and ±100 for the full control effect; potency is the fitted concentration of half-maximal effect.

Row | Structure (SMILES) | Potency | activity change, negative = inhibition
1 | CCN1CCN(S(=O)(=O)c2ccc(Cl)c(C(=O)NCCOc3ccc(C)cc3)c2)CC1 | inconclusive: 32.6 µM [falling, single point] | 
2 | COc1ccc(-c2noc(C(C)NC(=O)c3ccco3)n2)cc1 (stereo unspecified) | inconclusive: 29.1 µM [falling, single point] | 
3 | CC1(C)CC(=O)C=C(c2ccc(Oc3ccccc3)cc2)C1 | inconclusive: 8.2 µM [activator, partial curve, poor fit] | 
4 | O=C(Nc1ccncc1)c1cccc(S(=O)(=O)N2CCN(c3ccc(F)cc3)CC2)c1 | inconclusive: 16.4 µM [falling, single point] | 
5 | CC1(C)OC(=O)C2(Cc3ccccc3N3CCCC32)C(=O)O1 (stereo unspecified) |  | inactive: 2.56%
6 | CC(C)[C@H](NC(=O)[C@@H]1Cc2c([nH]c3ccccc23)C2c3ccccc3C(=O)N21)C(=O)N1CCC[C@@H]1C(=O)O (stereo partly specified) | inconclusive: 1.46 µM [activator, full curve, poor fit] | 
7 | Cc1cccc2c1-c1sc(C(=O)NCCCN3CCN(c4cccc(Cl)c4)CC3)cc1CO2 |  | inactive: 7.38% [at 9.27 µM]
8 | COc1ccccc1NC(=O)Nc1ccc2c(c1)nnn2C | inconclusive: 23.1 µM [activator, partial curve] | 
9 | Cc1ccc(OCC(=O)Nc2c(Cl)ccc3nsnc23)cc1C | inconclusive: 32.6 µM [falling, single point] | 
10 | COc1ccc(-c2noc3c2-c2nc(-c4cccc(C)c4)sc2CC3)cc1 | inconclusive: 7.31 µM [activator, partial curve, poor fit] | 
11 | CCOC(=O)c1sc(Nc2ccccc2Cl)nc1C | inconclusive: 29.1 µM [activator, single point] | 
12 | CCc1ccccc1NC(=S)N(CCN1CCOCC1)C1CCN(C(C)=O)CC1 | inconclusive: 29.1 µM [activator, single point] | 
13 | FC(F)(F)c1ccc(C2=Nc3ccccc3NC(c3cccs3)=N2)cc1 |  | inactive: 11.4%
14 | COc1ccc(NC(=S)N(CCc2nc3cc(C)c(C)cc3[nH]2)Cc2cccnc2)cc1 |  | inactive: -17.4%
15 | COc1ccc(F)cc1NC(=O)C1CCN(c2nc(-c3ccc(OC)c(OC)c3)no2)CC1 |  | inactive: 6.93% [at 9.27 µM]
16 | CCn1cc(C(=O)NCc2ccc(Cl)cc2)c(=O)c2cc(S(=O)(=O)N(C)C)ccc21 |  | inactive: -14.4%
17 | O=C(N/N=C/c1cn(-c2ccccc2)nc1-c1cccs1)c1ccc(Cl)cc1 | inconclusive: 29.1 µM [falling, single point] | 
18 | COC(=O)CC1COc2ccccc2N1C(=O)c1cccc(Cl)c1 (stereo unspecified) | inconclusive: 8.2 µM [falling, partial curve, poor fit] | 
19 | Cc1nc(NC(=O)CSc2nc3cccnc3n2C2CCCCC2)sc1C | inconclusive: 13 µM [falling, partial curve] | 
20 | Cc1nnc(SCc2nc3sc4c(c3c(=O)[nH]2)CCCC4)n(N)c1=O | inconclusive: 8.2 µM [falling, partial curve] | 
21 | Cc1ccc(C)c(S(=O)(=O)N2CCCC2CNC(=O)c2ccc([N+](=O)[O-])cc2)c1 (stereo unspecified) | active: 18.4 µM | 

Structures listed so far containing two or more sulfur atoms (2):
Row | Structure (SMILES) | Potency | activity change, negative = inhibition
19 | Cc1nc(NC(=O)CSc2nc3cccnc3n2C2CCCCC2)sc1C | inconclusive: 13 µM [falling, partial curve] | 
20 | Cc1nnc(SCc2nc3sc4c(c3c(=O)[nH]2)CCCC4)n(N)c1=O | inconclusive: 8.2 µM [falling, partial curve] | 

Next records follow:

Row | Structure (SMILES) | Potency | activity change, negative = inhibition
22 | CCOc1ccc(N=C2NN=C(c3cc(C)n(CC4CCCO4)c3C)CS2)cc1 (stereo unspecified) | inconclusive: 4.61 µM [activator, full curve, poor fit] | 
23 | CC(=O)c1ccc(NS(=O)(=O)Cc2ccccc2)cc1 | inconclusive: 23.1 µM [activator, single point] | 
24 | Cc1ccc(-n2nc(C)c3c(C)cc(=O)n(CC(=O)NCc4ccc(OC(C)C)cc4)c32)cc1 | inconclusive: 29.1 µM [activator, single point] | 
25 | COC(=O)c1[nH]c2cccc(OC)c2c1NC(=O)CN1CCOCC1 |  | inactive: -0.114%
26 | Cc1nn(-c2ccccc2)c(C)c1NC(=O)CCl |  | inactive: -1.19%
27 | Cc1cc(NS(=O)(=O)c2ccc(-c3ccccc3)cc2)no1 | inconclusive: 29.1 µM [falling, single point] | 
28 | CCCC(=O)Nc1cccc(-c2nc3cc(C)c(C)cc3o2)c1C | inconclusive: 4.11 µM [activator, full curve, poor fit] | 
29 | O=Cc1ccc(-c2nc3ccccc3s2)o1 | inconclusive: 5.17 µM [activator, full curve] | 
30 | CC1=Nc2ccccc2N=C(NC(=O)/C=C/C(=O)O)C1c1ccccc1 (stereo unspecified) | inconclusive: 23.1 µM [activator, single point] | 
31 | COc1ccc(-c2c(C3C4C=CCCC4(C)C(=O)N3Cc3ccccc3)ccc3ccccc23)cc1OC (stereo unspecified) | inconclusive: 23.1 µM [falling, single point] | 
32 | Clc1ccc(-c2c[n+]3c(n2-c2ccccc2)SCC3)cc1 | inconclusive: 20.6 µM [falling, single point] | 
33 | CC(Sc1ccc(Cl)cc1)C(=O)Nc1ccc(S(=O)(=O)N2CCOCC2)cc1 (stereo unspecified) | inconclusive: 18.4 µM [falling, single point] | 
34 | CCCNS(=O)(=O)c1ccc(CCC(=O)N2CCN(c3ccc(OC)cc3)CC2)cc1 | inconclusive: 25.9 µM [falling, partial curve, poor fit] | 
35 | CCn1c(CNC(=O)COc2ccc(C(C)C)cc2)nnc1SCC(=O)Nc1ccc(F)cc1 | inconclusive: 29.1 µM [falling, single point] | 
36 | C=C(C)COc1ccc2c(C)c(CC(=O)N3C[C@H]4C[C@@H](C3)c3cccc(=O)n3C4)c(=O)oc2c1C | inconclusive: 20.6 µM [falling, single point] | 
37 | CCSc1ccccc1-c1nc(-c2ccncc2)no1 | inconclusive: 29.1 µM [activator, single point] | 
38 | CCOc1ccc(NC(=S)NNC(=O)c2ccc(Br)cc2)cc1 | inconclusive: 13 µM [falling, partial curve, poor fit] | 
39 | CCOc1ccc(S(=O)(=O)Nc2cnc3ccccc3c2)cc1 | active: 4.11 µM | 
40 | O=C(CNC(=O)c1ccccc1F)N/N=C/c1cc(Br)ccc1OCc1ccccc1 | inconclusive: 13 µM [falling, partial curve] | 
41 | CCOC(=O)N1CCN(C(=S)NC(=O)c2cc(Br)ccc2Cl)CC1 | inconclusive: 10.3 µM [falling, partial curve] | 

Reference: PubChem BioAssay AID504444 (National Center for Advancing Translational Sciences (NCATS), 2011)
